The source of these data is publication PMC8472677.

By UniProt entry, the sequences of proteins in these tests, tags left out.
UniProt Q15796: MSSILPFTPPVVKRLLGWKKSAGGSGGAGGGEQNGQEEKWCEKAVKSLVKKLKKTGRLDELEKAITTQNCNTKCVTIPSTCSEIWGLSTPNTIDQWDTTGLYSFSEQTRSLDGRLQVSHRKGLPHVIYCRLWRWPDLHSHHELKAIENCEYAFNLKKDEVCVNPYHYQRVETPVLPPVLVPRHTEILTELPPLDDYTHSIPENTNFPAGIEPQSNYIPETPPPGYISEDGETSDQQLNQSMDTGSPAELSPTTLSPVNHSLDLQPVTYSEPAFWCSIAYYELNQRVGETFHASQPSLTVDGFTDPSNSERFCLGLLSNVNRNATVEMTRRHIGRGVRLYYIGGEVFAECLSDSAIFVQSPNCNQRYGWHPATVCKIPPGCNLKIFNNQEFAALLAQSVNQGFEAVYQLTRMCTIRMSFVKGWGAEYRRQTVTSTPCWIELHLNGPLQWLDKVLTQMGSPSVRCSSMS
UniProt Q92831: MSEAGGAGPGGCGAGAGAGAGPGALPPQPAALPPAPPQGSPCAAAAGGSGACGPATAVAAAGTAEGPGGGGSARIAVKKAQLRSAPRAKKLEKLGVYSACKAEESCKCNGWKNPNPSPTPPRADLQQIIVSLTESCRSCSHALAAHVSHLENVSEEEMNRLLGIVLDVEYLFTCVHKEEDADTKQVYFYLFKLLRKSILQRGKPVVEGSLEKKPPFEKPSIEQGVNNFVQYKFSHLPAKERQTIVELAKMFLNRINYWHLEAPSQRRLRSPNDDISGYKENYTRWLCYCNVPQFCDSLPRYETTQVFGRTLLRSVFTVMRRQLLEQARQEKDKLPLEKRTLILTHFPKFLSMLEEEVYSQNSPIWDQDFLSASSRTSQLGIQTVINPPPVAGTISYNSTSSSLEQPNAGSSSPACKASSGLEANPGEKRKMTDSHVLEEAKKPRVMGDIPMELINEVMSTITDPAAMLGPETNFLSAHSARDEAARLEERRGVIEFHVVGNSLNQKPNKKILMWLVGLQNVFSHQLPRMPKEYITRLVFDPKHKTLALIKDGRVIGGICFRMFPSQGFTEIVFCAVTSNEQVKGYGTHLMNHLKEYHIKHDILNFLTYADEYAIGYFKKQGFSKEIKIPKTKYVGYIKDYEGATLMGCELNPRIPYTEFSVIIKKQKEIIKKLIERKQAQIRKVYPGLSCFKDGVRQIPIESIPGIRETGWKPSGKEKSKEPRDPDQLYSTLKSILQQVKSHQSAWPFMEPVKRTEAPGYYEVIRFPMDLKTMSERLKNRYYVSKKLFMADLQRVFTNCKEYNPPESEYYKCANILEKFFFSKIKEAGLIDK

The target in the experiment is mothers against decapentaplegic homolog 2 (SMAD2) (human (endogenous in NHCFs)) (UniProt Q15796). Kind of experiment: co-IP; endogenous SMAD2 immunoprecipitated from 1-2 mg precleared NHCF lysate (RIPA buffer), protein A/G PLUS-Agarose, 4 °C, blot for PCAF; cells treated with TGF-β1; corresponding IgG as negative control.

Results are given in words; binding and its absence hold for the method and conditions named. In cells and extracts the contact can be indirect. Some results given as binding are weak or reduced against the parent protein; the word gives no strength.

Regarding “p300/CBP-associated factor (PCAF) (from UniProt Q92831 1-832)”, the binding result is “binds”.
